Laboratory results taken from CN114591431A.
Results are given in words; binding and its absence hold for the method and conditions named. Some entries that bind do so weakly or less than the wild type. Where a sequence is shown, tags or fusion partners need not be part of it.

Tests used:
[1] = molecular target: T1, 鼠GAS6 his蛋白(Sino Biological，Cat#58026-M08H) (mouse) (UniProt Q61592); test: ELISA, coated mouse GAS6 his
T1 sequence (looked up): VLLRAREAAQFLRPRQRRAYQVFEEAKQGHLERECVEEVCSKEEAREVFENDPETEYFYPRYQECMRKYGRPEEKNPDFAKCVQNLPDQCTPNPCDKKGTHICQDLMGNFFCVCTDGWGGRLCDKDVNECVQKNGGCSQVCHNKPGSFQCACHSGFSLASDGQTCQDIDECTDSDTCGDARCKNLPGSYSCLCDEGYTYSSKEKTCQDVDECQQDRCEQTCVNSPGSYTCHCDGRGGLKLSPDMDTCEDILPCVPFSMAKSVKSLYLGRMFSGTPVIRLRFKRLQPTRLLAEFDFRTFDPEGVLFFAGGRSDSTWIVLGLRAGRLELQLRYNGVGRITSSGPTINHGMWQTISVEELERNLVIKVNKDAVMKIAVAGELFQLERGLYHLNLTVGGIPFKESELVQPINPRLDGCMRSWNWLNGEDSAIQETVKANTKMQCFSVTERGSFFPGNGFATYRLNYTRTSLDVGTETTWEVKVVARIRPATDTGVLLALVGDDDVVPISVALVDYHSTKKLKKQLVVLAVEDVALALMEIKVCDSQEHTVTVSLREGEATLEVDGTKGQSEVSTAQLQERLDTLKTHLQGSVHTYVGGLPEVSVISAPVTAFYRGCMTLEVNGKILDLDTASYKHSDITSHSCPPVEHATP

[2] = molecular target: T2, 重组人GAS6 his 蛋白(Novoprotein，Cat#C01W) (human) (UniProt Q14393); test: ELISA
T2 sequence (looked up): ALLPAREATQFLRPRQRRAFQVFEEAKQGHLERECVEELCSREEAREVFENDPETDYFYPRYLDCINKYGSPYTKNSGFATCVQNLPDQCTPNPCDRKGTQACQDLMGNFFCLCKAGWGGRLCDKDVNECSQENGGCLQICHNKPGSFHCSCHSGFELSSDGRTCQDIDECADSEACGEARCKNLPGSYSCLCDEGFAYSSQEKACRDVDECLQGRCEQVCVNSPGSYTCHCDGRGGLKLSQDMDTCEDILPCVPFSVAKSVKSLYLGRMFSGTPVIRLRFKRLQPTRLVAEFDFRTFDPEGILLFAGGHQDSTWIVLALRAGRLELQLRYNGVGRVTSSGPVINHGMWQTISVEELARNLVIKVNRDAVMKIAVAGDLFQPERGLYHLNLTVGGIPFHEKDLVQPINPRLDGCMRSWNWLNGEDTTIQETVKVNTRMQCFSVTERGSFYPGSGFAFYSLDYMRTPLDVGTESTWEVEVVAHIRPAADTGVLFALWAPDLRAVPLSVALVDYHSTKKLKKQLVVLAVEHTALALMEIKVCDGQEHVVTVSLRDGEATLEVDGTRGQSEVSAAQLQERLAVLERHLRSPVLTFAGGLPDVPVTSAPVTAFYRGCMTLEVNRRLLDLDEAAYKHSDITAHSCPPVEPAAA

[3] = molecular target: T1, 鼠GAS6 his蛋白(Sino Biological，Cat#58026-M08H) (mouse); test: ELISA
[4] = molecular target: T2, 重组人GAS6 his 蛋白(Novoprotein，Cat#C01W) (human); test: ELISA, coated human GAS6 his

Measured: binding

B1: ch2D3C6 (antibody, human IgG1, kappa, V domains shown)
VH: DIQLQESGPGLVKPSQSLSLTCSVTGYSITNGYYWNWIRQFPGNKLEWMGYISYDGTNNYNPSLKNRISITRDTSKNQFFLKLNSVTTEDTATYYCARRALWYYAMDYWGQGTSVTVSS
VL: DIVMTQSPASLAVSLGQRATISCKASQSVDYDGESYMNWYQQKPGQPPKLLIYVASNLESGIPARFSGSGSGTDFTLNIHPVEEEDAATYYCQQSDEDPYTFGGGTKLEIKR
binds: [1]

B2: ch2O18G6 (antibody, human IgG1, kappa, V domains shown)
VH: QVQLQQSGPELVKPGASVKISCKTSGNTFTEYIMHWVKQSHGKSLEWIGGINPKNGGTSYNQKFKGKATLTVDKSSRTAYMELRSLTSEDSAVYYCARVRIPPYVYYAMDYWGQGTTVTVSS
VL: DVVVTQTPLSLPVSLGDQASISCRSSQSIVHSNGNTYLEWYLQKPGQSPKLLIYKVSNRFSGVPDRFSGSGSGTDFTLKISRVEAEDLGVYYCFQGSHVPYTFGGGTKLEIKR
binds: all assays above

B3: ch15G5E5 (antibody, human IgG1, kappa, V domains shown)
VH: EVQLQQSGPELVKPGASVKMSCKASGYTFTDDYMKWVKQSHGKSLEWIGDINPNNGGTIYNQKFKGKAILTVDKSSSTAYMQLNSLTSEDSAVYYCARRGRGSWGQGTTVTVSS
VL: DVLMTQTPLSLPVSLGDQASISCRSSQSIVYSNGNTYLEWYLQKPGQSPKLLIYRVSNRFSGVPDRFSGSGSGTDFTLKISRVEAEDLGIYYCFQGSHVPLTFGAGTKLELKR
binds: all assays above

B4: ch18I16C6 (antibody, human IgG1, kappa, V domains shown)
VH: EVKIEESGGGLVKPGGSLKLSCAASGFTFSSYAMSWFRQTPEKRLEWVASISSGGNSYYPDSVKGRFTISRDNARNILYLQMSSLRSEDTAMYYCSRTPDYWGQGTTVTVSS
VL: DVVMTQSPSSMCASLGERVTITCKASQDINTYLSWFQQKPGKSPKTLIYRANRLVDGVPSRFSGSGSGQDYSLTISSLEYEDMGIYYCLQYDEFPFTFGSGTKLEIKR
binds: all assays above
